The record followed here is PMC8048564.

The exact form of at least one protein or probe is not confirmed. A negative result means that nothing was seen under these conditions.

The data set has as its system PpnGRF5-1. The data set is described as follows: EMSA. The settings on record: recombinant protein, protein details: GST (N-terminal, pGEX-KG). On the technique in general: Mobility shift assays separate free from complexed probe on a gel.
Where [1] appears, read: mutant probe, legend also mentions 50x/100x unlabeled probe and mutant competitors.

Regarding “AATCAACCTTTGTTCCGACCAATCTTCGCTACTCCCAAGTGTGATTCCATATAAGAGCTC (double strand) [PagCKX1p-2 mutant probe]”, the binding result under setting [1] is on record as “no binding”. As to “AATCAACCTTTGTTCCGACCAATCTTCTGTCAGCCCAAGTGTGATTCCATATAAGAGCTC (double strand) [PagCKX1p-2 probe (+60 site)]”, under “label: biotin”, the binding result is given as “binds”. The same measure, in the same setting: to “ACCTTTTTGGTGTTTCCCGCATTCAAACTGTCAGCCTCAAGTTCACAGTTTCTCCCCTTT (double strand) [PagCKX1p-1 probe (-1710 site)]” belongs “binds”. As to “ACCTTTTTGGTGTTTCCCGCATTCAAACGCTACTCCTCAAGTTCACAGTTTCTCCCCTTT (double strand) [PagCKX1p-1 mutant probe]”, the binding result under setting [1] is “no binding”.
